Results: patent US20050271643A1, “Bacterial strains, compositions including same and probiotic use thereof” (priority 2003, published 2005)
For at least one compound, name, drawing or mass did not settle the structure.

Experiments:
[1] = test system: B. subtilis HE; test: Antibiogram by disc diffusion method; format: cell-based, Bacillus subtilis
[2] = test system: B. licheniformis PA; test: Antibiogram by disc diffusion method; format: cell-based, Bacillus licheniformis

Structure (SMILES)	Sensitivity or resistance of the strain to the antibiotic (in words) [1]	Sensitivity or resistance of the strain to the antibiotic (in words) [2]
CCC[C@@H]1C[C@@H](C(=O)N[C@@H]([C@H]2O[C@H](SC)[C@H](O)[C@@H](O)[C@H]2O)[C@H](C)Cl)N(C)C1 [Clindamycin]	sensitive	resistant
C[C@@H](O)[C@H]1C(=O)N2C(C(=O)O)=C(SCCN=CN)C[C@H]12 [Imipenem]	sensitive	sensitive
